Laboratory results reported in the supplement of paper PMC10849652.
Some of the results follow. Residues, ends and D or L forms follow the SMILES beside them. *: point of attachment. Cbz = O=C(OCc1ccccc1)*

Protein sequences, listed by entry. Tags and fused reporters are not part of them. Lines headed by an entry give the natural chain unless they say otherwise; changes in a name come on top.
UniProt Q9Y6H3: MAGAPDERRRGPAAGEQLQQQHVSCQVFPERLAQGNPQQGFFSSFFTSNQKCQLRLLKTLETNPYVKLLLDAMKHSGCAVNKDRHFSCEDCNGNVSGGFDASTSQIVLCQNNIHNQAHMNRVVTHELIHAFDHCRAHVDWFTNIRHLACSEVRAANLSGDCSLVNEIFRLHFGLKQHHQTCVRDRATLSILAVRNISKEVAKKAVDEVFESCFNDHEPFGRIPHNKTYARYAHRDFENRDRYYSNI
UniProt Q9Y2Y0: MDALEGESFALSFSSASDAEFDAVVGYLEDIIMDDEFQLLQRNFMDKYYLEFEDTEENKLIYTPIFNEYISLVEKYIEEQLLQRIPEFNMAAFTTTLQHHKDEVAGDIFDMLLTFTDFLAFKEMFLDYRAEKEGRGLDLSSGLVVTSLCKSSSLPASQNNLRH
UniProt Q8N6S5: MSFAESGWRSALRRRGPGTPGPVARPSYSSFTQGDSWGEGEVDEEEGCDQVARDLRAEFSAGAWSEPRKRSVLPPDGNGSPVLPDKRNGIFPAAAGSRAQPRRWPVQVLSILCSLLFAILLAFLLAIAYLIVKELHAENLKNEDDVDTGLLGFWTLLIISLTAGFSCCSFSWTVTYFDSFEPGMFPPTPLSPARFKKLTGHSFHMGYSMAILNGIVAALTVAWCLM
UniProt Q8N2F6: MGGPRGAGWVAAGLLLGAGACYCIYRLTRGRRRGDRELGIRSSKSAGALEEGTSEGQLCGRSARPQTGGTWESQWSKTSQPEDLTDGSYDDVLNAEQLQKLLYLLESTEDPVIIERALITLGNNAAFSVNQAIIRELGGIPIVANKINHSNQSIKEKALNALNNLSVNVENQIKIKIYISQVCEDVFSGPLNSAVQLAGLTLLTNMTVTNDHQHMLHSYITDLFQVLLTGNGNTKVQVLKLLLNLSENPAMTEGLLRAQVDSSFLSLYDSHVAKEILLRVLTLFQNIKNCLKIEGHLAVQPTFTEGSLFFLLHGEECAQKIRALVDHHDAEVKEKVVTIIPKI
UniProt Q5T9A4: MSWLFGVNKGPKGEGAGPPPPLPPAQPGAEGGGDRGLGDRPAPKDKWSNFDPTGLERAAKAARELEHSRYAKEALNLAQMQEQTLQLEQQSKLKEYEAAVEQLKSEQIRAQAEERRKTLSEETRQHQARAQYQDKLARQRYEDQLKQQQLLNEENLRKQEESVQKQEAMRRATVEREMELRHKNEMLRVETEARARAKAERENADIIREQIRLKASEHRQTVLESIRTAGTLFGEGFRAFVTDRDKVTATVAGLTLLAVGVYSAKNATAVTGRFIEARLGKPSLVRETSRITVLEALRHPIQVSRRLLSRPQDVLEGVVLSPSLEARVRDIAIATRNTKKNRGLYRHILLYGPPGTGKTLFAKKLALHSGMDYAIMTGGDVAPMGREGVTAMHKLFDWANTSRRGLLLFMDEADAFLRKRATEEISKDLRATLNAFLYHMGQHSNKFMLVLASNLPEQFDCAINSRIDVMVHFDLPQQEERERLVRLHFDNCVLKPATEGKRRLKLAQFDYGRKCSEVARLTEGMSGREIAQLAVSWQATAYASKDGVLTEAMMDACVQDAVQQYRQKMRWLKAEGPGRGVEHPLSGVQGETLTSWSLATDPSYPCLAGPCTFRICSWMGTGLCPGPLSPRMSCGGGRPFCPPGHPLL
UniProt P40616: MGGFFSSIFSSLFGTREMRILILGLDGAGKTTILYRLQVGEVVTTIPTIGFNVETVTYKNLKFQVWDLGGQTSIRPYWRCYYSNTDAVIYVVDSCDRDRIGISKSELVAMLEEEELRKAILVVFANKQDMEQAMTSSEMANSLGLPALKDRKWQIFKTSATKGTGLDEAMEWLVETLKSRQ
UniProt P36405: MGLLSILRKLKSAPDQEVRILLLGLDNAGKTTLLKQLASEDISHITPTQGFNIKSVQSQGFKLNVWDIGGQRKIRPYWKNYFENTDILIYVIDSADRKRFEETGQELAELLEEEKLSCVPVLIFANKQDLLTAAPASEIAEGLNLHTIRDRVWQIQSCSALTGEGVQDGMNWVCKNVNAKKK
UniProt Q9NVI7: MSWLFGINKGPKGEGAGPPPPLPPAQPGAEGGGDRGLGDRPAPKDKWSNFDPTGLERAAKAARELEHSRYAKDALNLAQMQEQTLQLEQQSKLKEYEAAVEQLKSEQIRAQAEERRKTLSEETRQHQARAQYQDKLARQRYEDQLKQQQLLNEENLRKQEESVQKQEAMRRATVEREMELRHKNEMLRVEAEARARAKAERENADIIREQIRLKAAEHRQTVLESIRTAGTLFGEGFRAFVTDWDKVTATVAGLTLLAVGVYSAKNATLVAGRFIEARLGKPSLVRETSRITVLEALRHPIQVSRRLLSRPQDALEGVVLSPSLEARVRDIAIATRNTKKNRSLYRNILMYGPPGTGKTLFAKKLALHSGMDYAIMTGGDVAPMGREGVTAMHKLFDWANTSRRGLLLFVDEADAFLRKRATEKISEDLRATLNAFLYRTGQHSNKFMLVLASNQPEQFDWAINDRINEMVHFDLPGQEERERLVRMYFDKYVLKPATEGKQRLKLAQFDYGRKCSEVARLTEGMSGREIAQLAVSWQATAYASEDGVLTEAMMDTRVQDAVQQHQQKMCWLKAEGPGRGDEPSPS
UniProt Q8NBU5: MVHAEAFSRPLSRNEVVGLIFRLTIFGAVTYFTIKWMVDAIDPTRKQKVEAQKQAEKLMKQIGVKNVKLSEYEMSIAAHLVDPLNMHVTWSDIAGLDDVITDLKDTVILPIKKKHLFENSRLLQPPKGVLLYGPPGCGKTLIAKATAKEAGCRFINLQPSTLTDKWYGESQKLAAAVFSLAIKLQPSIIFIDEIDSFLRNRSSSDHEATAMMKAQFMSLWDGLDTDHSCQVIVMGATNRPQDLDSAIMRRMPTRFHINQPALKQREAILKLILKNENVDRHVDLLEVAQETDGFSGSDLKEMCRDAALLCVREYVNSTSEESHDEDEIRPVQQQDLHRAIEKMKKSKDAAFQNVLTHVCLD
UniProt Q93050, whole entry, looked up: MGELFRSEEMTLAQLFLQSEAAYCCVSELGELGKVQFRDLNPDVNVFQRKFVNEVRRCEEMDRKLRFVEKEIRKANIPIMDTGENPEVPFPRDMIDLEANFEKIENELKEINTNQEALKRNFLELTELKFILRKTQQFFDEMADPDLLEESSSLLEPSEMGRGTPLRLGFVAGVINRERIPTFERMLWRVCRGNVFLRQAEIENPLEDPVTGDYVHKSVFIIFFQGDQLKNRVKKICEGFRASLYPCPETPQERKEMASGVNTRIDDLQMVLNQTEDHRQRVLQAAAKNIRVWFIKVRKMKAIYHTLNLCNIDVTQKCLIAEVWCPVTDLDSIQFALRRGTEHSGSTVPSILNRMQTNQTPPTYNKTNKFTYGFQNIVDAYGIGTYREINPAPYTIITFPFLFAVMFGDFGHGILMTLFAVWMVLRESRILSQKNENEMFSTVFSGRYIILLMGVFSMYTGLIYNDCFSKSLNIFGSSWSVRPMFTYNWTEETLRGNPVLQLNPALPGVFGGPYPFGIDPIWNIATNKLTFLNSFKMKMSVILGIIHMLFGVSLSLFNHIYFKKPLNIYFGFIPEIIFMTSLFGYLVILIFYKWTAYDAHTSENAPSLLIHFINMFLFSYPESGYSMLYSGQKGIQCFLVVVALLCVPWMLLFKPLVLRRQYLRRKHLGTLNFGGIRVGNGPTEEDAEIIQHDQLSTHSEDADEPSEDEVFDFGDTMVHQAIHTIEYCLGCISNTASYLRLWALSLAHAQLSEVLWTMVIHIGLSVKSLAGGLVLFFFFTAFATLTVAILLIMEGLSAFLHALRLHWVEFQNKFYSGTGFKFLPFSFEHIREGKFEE
UniProt Q13733, whole entry, looked up: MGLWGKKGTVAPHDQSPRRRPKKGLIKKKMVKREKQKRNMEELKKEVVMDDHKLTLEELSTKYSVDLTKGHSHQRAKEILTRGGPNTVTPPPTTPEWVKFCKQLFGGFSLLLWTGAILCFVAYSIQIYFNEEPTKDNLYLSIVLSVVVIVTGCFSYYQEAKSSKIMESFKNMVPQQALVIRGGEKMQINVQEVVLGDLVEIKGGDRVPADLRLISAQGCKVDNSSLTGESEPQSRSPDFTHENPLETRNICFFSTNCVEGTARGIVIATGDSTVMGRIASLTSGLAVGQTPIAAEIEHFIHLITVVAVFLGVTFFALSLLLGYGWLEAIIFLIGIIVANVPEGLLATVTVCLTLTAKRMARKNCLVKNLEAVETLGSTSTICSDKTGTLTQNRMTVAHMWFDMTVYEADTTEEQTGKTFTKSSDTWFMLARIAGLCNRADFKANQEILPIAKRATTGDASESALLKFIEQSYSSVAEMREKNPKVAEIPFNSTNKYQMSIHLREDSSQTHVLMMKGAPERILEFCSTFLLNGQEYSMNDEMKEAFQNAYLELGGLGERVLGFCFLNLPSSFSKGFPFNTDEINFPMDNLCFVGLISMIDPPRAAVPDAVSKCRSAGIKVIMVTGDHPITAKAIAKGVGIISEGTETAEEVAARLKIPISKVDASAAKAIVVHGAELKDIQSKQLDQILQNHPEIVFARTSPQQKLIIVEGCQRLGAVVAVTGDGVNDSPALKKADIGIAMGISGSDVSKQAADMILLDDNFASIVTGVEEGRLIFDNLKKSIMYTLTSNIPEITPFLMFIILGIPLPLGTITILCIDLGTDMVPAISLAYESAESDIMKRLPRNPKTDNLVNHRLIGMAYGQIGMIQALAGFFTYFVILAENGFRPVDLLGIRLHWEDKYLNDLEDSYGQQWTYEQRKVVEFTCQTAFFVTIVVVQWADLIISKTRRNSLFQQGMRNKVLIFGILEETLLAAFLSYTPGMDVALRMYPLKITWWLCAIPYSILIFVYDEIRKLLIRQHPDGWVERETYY
UniProt Q9H7F0: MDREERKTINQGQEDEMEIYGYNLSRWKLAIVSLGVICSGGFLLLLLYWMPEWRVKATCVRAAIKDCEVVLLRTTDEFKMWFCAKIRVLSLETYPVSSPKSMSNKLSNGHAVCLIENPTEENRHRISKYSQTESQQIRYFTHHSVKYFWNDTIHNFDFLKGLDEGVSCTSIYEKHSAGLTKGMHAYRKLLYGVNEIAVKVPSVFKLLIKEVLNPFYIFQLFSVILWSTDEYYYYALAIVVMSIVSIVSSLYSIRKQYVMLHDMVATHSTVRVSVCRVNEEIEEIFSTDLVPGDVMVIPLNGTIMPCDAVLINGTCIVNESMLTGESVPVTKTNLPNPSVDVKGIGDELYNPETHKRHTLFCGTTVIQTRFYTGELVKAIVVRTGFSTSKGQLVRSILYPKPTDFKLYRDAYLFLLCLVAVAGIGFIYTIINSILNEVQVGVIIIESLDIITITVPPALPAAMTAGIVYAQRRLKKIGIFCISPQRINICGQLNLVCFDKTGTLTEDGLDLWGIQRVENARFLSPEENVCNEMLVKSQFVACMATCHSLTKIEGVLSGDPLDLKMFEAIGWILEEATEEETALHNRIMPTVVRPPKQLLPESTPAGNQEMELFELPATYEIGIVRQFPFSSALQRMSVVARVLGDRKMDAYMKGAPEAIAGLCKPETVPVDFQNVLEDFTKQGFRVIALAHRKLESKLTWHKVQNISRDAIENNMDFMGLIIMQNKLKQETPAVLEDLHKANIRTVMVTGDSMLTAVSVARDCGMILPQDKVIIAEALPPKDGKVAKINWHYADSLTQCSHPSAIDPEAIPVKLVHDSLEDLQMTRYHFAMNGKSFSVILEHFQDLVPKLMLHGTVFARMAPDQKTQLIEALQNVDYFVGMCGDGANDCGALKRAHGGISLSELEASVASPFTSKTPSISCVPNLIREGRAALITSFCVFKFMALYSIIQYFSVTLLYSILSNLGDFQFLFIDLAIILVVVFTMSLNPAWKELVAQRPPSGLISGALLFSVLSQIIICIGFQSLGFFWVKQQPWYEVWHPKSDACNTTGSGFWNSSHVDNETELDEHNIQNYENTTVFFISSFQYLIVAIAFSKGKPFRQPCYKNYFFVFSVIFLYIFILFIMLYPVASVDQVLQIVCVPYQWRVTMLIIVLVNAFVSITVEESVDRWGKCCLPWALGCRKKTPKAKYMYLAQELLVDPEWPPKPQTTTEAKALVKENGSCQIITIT
UniProt P21283, whole entry, looked up: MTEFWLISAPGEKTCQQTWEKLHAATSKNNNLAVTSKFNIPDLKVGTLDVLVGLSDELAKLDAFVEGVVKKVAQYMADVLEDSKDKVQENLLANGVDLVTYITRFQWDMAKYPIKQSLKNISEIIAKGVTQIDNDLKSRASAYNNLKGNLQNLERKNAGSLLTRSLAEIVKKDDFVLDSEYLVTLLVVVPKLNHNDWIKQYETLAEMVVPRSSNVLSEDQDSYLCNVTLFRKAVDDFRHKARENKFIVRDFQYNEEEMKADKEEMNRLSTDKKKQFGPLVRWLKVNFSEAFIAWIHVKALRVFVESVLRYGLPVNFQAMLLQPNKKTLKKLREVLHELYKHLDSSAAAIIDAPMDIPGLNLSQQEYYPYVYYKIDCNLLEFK

Assays:
Assay in all cases: log2 fold change, soluble protein after heating vs DMSO (PISA); higher = thermal stabilisation; K562 cells, 10 uM, 30 min; active = over 0.2 and 3.5 SD of the protein, either way, in both replicates (recomputed)
IRAK-1-4 Inhibitor I = compound: C1COCCN1CCN2C3=CC=CC=C3N=C2NC(=O)C4=CC(=CC=C4)[N+](=O)[O-] [IRAK-1-4 Inhibitor I]
Summary of the method: (§1)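 K562 cells at 2×10^6 cells/mL were given 10 μM compound for 30 min. Aliquots then went through 3 min of heating across 48°C-58°C, were pooled, and were extracted in PBS with 0.5% NP-40 at 4°C, and the supernatant after 21,000xg for 90 min was quantified by TMTpro 16plex LC-MS/MS with channel sums equalised. Thermal stability relative to control samples, from duplicates, is given as log2 fold change.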

ibrutinib = compound: C=CC(=O)N1CCC[C@@H](n2nc(-c3ccc(Oc4ccccc4)cc3)c3c(N)ncnc32)C1 [ibrutinib]
Summary of the method: as §1

[1] = compound: CC(=O)c1cnc2ccc(-c3cc(Cl)c(O)c(Cl)c3)nc2c1N[C@H]1CC[C@H](CN(C)C)CC1
Summary of the method: as §1

ralimetinib = compound: CC(C)(C)Cn1c(N)nc2ccc(-c3[nH]c(C(C)(C)C)nc3-c3ccc(F)cc3)nc21 [ralimetinib]
Summary of the method: as §1

[2] = compound: CC(C)(O)CC(=O)NCCn1ccc2ncnc(Nc3ccc(Oc4cccc(C(F)(F)F)c4)c(Cl)c3)c21
Summary of the method: as §1

[3] = compound: CC(C)C1=C2N=C(C=C(N2N=C1)NCC3=CC=CC=C3)NCCCCCCN
Summary of the method: as §1

[4] = compound: CC(C)C[C@@H](C=O)NC(=O)[C@H](CC(C)C)NC(=O)[C@H](CC(C)C)NC(=O)OCc1ccccc1
Summary of the method: as §1

pinometostat = compound: CC(C)N(C[C@H]1O[C@@H](n2cnc3c(N)ncnc32)[C@H](O)[C@@H]1O)[C@H]1C[C@@H](CCc2nc3cc(C(C)(C)C)ccc3[nH]2)C1 [pinometostat]
Summary of the method: as §1

[5] = compound: CC1=C(C2=C(C=C1)C(=O)C3=CC=CC=C3N2CCCN)C
Summary of the method: as §1

[6] = compound: CC1=C(C=C(C=C1)NC(=O)C2=CC(=CC=C2)C(C)(C)C#N)NC3=CC4=C(C=C3)N=CN(C4=O)C
Summary of the method: as §1

[7] = compound: CC1=C(C=C(C=C1)NC(=O)C2=CC(=CC=C2)N(C)C)NC(=O)C3=CC=C(C=C3)O
Summary of the method: as §1

[8] = compound: CC1=CC=C(C=C1)SC2=C3C=C(SC3=CN=C2)C(=O)N
Summary of the method: as §1

[9] = compound: CC1=NC(=CC=C1)C2=C(N=C(N2)C(C)(C)C)C3=CC4=NC=CN=C4C=C3
Summary of the method: as §1

Nexturastat A = compound: CCCCN(Cc1ccc(C(=O)NO)cc1)C(=O)Nc1ccccc1 [Nexturastat A]
Summary of the method: as §1

vemurafenib = compound: CCCS(=O)(=O)Nc1ccc(F)c(C(=O)c2c[nH]c3ncc(-c4ccc(Cl)cc4)cc23)c1F [vemurafenib]
Summary of the method: as §1

[10] = compound: CCCS(=O)(=O)Nc1ccc(F)c(C(=O)c2c[nH]c3ncc(Cl)cc23)c1F
Summary of the method: as §1

[11] = compound: CCCc1cc(C)[nH]c(=O)c1CNC(=O)c1cc(-c2ccnc(N3CCN(C)CC3)c2)cc2c1cnn2C(C)C
Summary of the method: as §1

givinostat = compound: CCN(CC)Cc1ccc2cc(COC(=O)Nc3ccc(C(=O)NO)cc3)ccc2c1 [givinostat]
Summary of the method: as §1

barasertib = compound: CCN(CCCOc1ccc2c(Nc3cc(CC(=O)Nc4cccc(F)c4)[nH]n3)ncnc2c1)CCOP(=O)(O)O [barasertib]
Summary of the method: as §1

[12] = compound: CC1=C(C(CC(=O)N1)C2=CC=C(C=C2)C(F)(F)F)C(=O)NC3=C(C=C4C(=C3)C=NN4)F
Summary of the method: as §1

Measured: log2 fold change

ATP23 (UniProt Q9Y6H3)
inactive: IRAK-1-4 Inhibitor I 0.091 | ibrutinib -0.009 | [1] -0.004 | ralimetinib -0.043 | [2] 0.02 | [3] -0.136 | [4] 0.025 | pinometostat -0.014 | [5] -0.01 | [6] 0.027 | [7] -0.013 | [8] 0.122 | [9] 0.058 | Nexturastat A -0.172 | vemurafenib 0.021 | [10] -0.039 | [11] -0.031 | givinostat -0.012 | barasertib -0.049

ARL2BP (UniProt Q9Y2Y0)
inactive: IRAK-1-4 Inhibitor I -0.053 | ibrutinib -0.009 | [1] 0.03 | ralimetinib 0.01 | [2] -0.127 | [3] -0.269 | [4] -0.011 | pinometostat -0.037 | [5] -0.028 | [6] 0.154 | [7] -0.033 | [8] 0.012 | [9] 0.281 | Nexturastat A 0.043 | vemurafenib -0.031 | [10] 0.071 | [11] 0.102 | givinostat -0.041 | barasertib 0.079

ARL6IP6 (UniProt Q8N6S5)
active: ralimetinib 0.413
inactive: IRAK-1-4 Inhibitor I 0.12 | ibrutinib 0.056 | [1] 0.168 | [2] 0 | [3] -0.049 | [4] -0.199 | pinometostat 0.069 | [5] 0.02 | [6] -0.112 | [7] -0.038 | [8] 0.009 | [9] -0.071 | Nexturastat A 0.106 | vemurafenib 0 | [10] 0.049 | [11] 0.034 | givinostat 0.099 | barasertib -0.048

ARMC10 (UniProt Q8N2F6)
inactive: IRAK-1-4 Inhibitor I 0.001 | ibrutinib -0.018 | [1] -0.035 | ralimetinib -0.003 | [2] -0.029 | [3] 0.005 | [4] 0.034 | pinometostat 0.033 | [5] 0 | [6] 0.03 | [7] -0.087 | [8] -0.019 | [9] -0.046 | Nexturastat A 0.056 | vemurafenib 0.12 | [10] 0.074 | [11] 0.072 | givinostat 0.063 | barasertib 0.019

ATAD3B (UniProt Q5T9A4)
inactive: IRAK-1-4 Inhibitor I -0.05 | ibrutinib 0.045 | [1] -0.01 | ralimetinib 0.122 | [2] -0.011 | [4] 0.066 | pinometostat 0.276 | [5] 0.024 | [6] -0.07 | [7] -0.022 | [8] 0.003 | [9] -0.009 | Nexturastat A 0.236 | vemurafenib -0.024 | [10] 0.042 | [11] 0.058 | givinostat 0.05 | barasertib -0.019
active: [3] -0.472

ATP13A2 (UniProt Q9NQ11)
active: [3] -0.511
inactive: IRAK-1-4 Inhibitor I 0.04 | ibrutinib 0.074 | [1] 0.007 | ralimetinib -0.033 | [2] -0.03 | [4] 0.011 | pinometostat 0.063 | [5] 0.181 | [6] 0.017 | [7] 0.009 | [8] 0.035 | [9] 0.055 | Nexturastat A 0.001 | vemurafenib 0.085 | [10] -0.037 | [11] 0.014 | givinostat -0.044 | barasertib -0.052

ATP1B3 (UniProt P54709)
inactive: IRAK-1-4 Inhibitor I 0.025 | ibrutinib 0.043 | [1] -0.03 | ralimetinib -0.036 | [2] 0.01 | [3] 0.154 | [4] -0.008 | pinometostat -0.056 | [5] -0.032 | [6] 0 | [7] -0.015 | [8] -0.02 | [9] 0.046 | Nexturastat A -0.065 | vemurafenib 0.005 | [10] -0.036 | [11] -0.018 | givinostat -0.055 | barasertib -0.021

ARL1 (UniProt P40616)
inactive: IRAK-1-4 Inhibitor I 0.007 | ibrutinib -0.031 | [1] -0.06 | ralimetinib 0.029 | [2] -0.09 | [3] 0.044 | [4] -0.049 | pinometostat -0.039 | [5] 0.066 | [6] 0.057 | [7] -0.012 | [8] 0.162 | [9] 0.054 | Nexturastat A -0.119 | vemurafenib 0.037 | [10] 0.116 | [11] 0.071 | givinostat 0.07 | barasertib 0.007

Retrieved one by one from the list above (2):
ATAD3B (UniProt Q5T9A4)
inactive: IRAK-1-4 Inhibitor I -0.05 | ibrutinib 0.045 | [1] -0.01 | ralimetinib 0.122 | [2] -0.011 | [4] 0.066 | pinometostat 0.276 | [5] 0.024 | [6] -0.07 | [7] -0.022 | [8] 0.003 | [9] -0.009 | Nexturastat A 0.236 | vemurafenib -0.024 | [10] 0.042 | [11] 0.058 | givinostat 0.05 | barasertib -0.019
active: [3] -0.472

ATP23 (UniProt Q9Y6H3)
inactive: IRAK-1-4 Inhibitor I 0.091 | ibrutinib -0.009 | [1] -0.004 | ralimetinib -0.043 | [2] 0.02 | [3] -0.136 | [4] 0.025 | pinometostat -0.014 | [5] -0.01 | [6] 0.027 | [7] -0.013 | [8] 0.122 | [9] 0.058 | Nexturastat A -0.172 | vemurafenib 0.021 | [10] -0.039 | [11] -0.031 | givinostat -0.012 | barasertib -0.049

Additional results:

ARL3 (UniProt P36405)
inactive: IRAK-1-4 Inhibitor I 0.049 | ibrutinib -0.01 | [1] -0.033 | ralimetinib -0.042 | [2] -0.034 | [3] 0.065 | [4] -0.057 | pinometostat -0.029 | [5] 0.017 | [6] -0.016 | [7] 0.018 | [8] 0.016 | [9] 0.025 | Nexturastat A -0.063 | vemurafenib 0.002 | [10] 0.059 | [11] -0.033 | givinostat 0.005 | barasertib -0.022

ATAD3A isoform 2 (UniProt Q9NVI7)
inactive: IRAK-1-4 Inhibitor I -0.005 | ibrutinib 0.08 | [1] -0.075 | ralimetinib 0.009 | [2] -0.023 | [4] 0.075 | pinometostat 0.082 | [5] 0.096 | [6] -0.04 | [7] 0.005 | [8] 0.007 | [9] 0.017 | Nexturastat A 0.207 | vemurafenib 0.033 | [10] 0.052 | [11] 0 | givinostat 0.045 | barasertib 0.009
active: [3] -0.468

ATAD1 (UniProt Q8NBU5)
inactive: IRAK-1-4 Inhibitor I -0.007 | ibrutinib 0.011 | [1] -0.081 | [2] -0.083 | [3] -0.077 | [4] 0.038 | pinometostat 0.041 | [5] 0.054 | [6] 0.019 | [7] -0.034 | [8] 0.012 | [9] -0.012 | Nexturastat A -0.305 | vemurafenib 0.076 | [10] 0.022 | [11] 0.045 | givinostat 0.046 | barasertib 0.055
active: ralimetinib 0.238

ASPH (UniProt Q12797)
inactive: IRAK-1-4 Inhibitor I -0.105 | ibrutinib -0.017 | [1] 0.048 | ralimetinib 0.057 | [2] 0.023 | [3] -0.02 | [4] 0.044 | pinometostat 0.056 | [12] 0.026 | [5] -0.018 | [6] 0.024 | [7] -0.03 | [8] -0.086 | [9] -0.104 | Nexturastat A 0.165 | vemurafenib -0.085 | [10] -0.051 | [11] 0.034 | givinostat 0.116 | barasertib -0.039

ATP6V0A1 isoform 3 (UniProt Q93050)
active: [3] -0.463
inactive: IRAK-1-4 Inhibitor I -0.068 | ibrutinib 0 | [1] -0.033 | ralimetinib 0.087 | [2] 0.019 | [4] 0.125 | pinometostat 0.198 | [5] 0.011 | [6] 0.038 | [7] -0.034 | [8] -0.006 | [9] -0.051 | Nexturastat A 0.198 | vemurafenib 0.017 | [10] 0 | [11] 0.032 | givinostat 0.031 | barasertib 0.006

ATP9B (UniProt O43861)
inactive: IRAK-1-4 Inhibitor I 0.061 | ibrutinib -0.068 | [1] -0.034 | ralimetinib -0.077 | [2] -0.054 | [3] -0.071 | [4] -0.024 | pinometostat -0.064 | [5] 0.003 | [6] -0.185 | [7] -0.007 | [8] -0.054 | [9] 0.061 | Nexturastat A 0.013 | vemurafenib -0.05 | [10] 0.01 | [11] -0.03 | givinostat 0.085 | barasertib 0.013

ATP1A4 (UniProt Q13733)
inactive: IRAK-1-4 Inhibitor I 0.002 | ibrutinib -0.013 | [1] 0.032 | ralimetinib -0.025 | [2] -0.025 | [3] 0.121 | [4] -0.033 | pinometostat -0.017 | [5] 0.03 | [6] 0.017 | [7] 0.029 | [8] 0.141 | [9] 0.065 | Nexturastat A -0.03 | vemurafenib -0.137 | [10] -0.08 | [11] -0.026 | givinostat -0.216 | barasertib 0

ATP13A3 (UniProt Q9H7F0)
inactive: IRAK-1-4 Inhibitor I 0.043 | ibrutinib -0.005 | [1] 0.004 | ralimetinib -0.032 | [2] -0.136 | [3] -0.199 | [4] 0.073 | pinometostat -0.007 | [5] -0.035 | [6] 0.027 | [7] 0.031 | [8] -0.068 | [9] 0.012 | Nexturastat A -0.042 | vemurafenib -0.014 | [10] -0.02 | [11] -0.076 | givinostat 0.025 | barasertib -0.001

ATP6V1C1 (UniProt P21283)
inactive: IRAK-1-4 Inhibitor I -0.102 | ibrutinib -0.041 | [1] -0.074 | ralimetinib 0.036 | [2] 0.039 | [3] -0.008 | [4] 0.052 | pinometostat 0.068 | [5] -0.037 | [6] 0.004 | [7] -0.037 | [8] -0.024 | [9] -0.033 | Nexturastat A 0.131 | vemurafenib -0.018 | [10] 0.057 | [11] 0.026 | givinostat 0.031 | barasertib 0.062
